The results in this text go back to US20220307159.

For this data set, the system named is eIF3 complex (detected via eIF3b) (Homo sapiens). The data set can be described thus: pull-down. As to conditions: HEK293FT lysate, 4 C 12 h, anti-eIF3b detection (Wes); low-ranked RNA; protein in an extract; protein details: endogenous, HEK293FT cell lysate; label: 3' biotin on DNA barcode strand.

For at least one entry, the source does not settle the construct or the ends of the probe. At least one result comes from cells or an extract, where the contact may be indirect. A negative result means that nothing was seen under these conditions.

Turning to “GGAUACUAGCGCGGCUGUGAGUCUGGGGUGUACGAGCAGGUGUUUGGACUAACCUGCUCGUGCACC / CCAGACTCACAGCCGCGCTAGTATCCAAG [Rank8531_Pulldown_RNA_Probe]”, the binding result was “no binding”.
